In patent publication US8377914B2, “Method of inducing negative chemotaxis” (Celtaxsys, Inc., priority 2008, dated 2013):
Some entries share one result that the patent states for a list of compounds. At least one read-out could not be matched to a standard name with certainty.

Test system: neutrophils
Assay: Chemorepulsion assay of neutrophils in Neuroprobe ChemoTx plates, migrated cells quantified with Cell Titer Glo
Type: cell-based, human
Conditions: in at least two replicates, concentration not given
Procedure: The chemorepulsive activity of idebenone, benazepril, rolipram, moxonidine, lamivudine, calcitriol, calcipotriol, loxoprofen, terbinafine, Synephrine and 6-aminoindazole was determined as follows: • 1. Prior to beginning the assay, the following were prepared: • a. 0.5% Fetal Calf Serum (FCS) in Iscove's Modified Dulbecco's Medium (IMDM) (Assay Medium) (Both from ATCC). • b. Migratory cells at a concentration of 2×10^7 cells/ml in Assay Medium. • c. The indicated dilutions of the ligand of interest in Assay Medium were prepared. • 2. The assay plates are Neuroprobe ChemoTx plates, part number 206-3 (3 um pore size) for neutrophils. • 3. The plates were removed from packaging, leaving the membrane behind. • 4. 31 μl of the following solutions were pipetted into each well: • a. For media controls and for chemorepulsion samples, Assay Medium was used. • b. For chemoattraction samples, appropriate dilution of ligand was used. • 5. A sterile needle was used to pop any and all small bubbles present in each well. • 6. The membrane was carefully placed onto the plate, starting at one side and then slowly lowering the other edge onto the plate. • 7. 29 μl of the following were pipetted onto the top of each circle: • a. For media controls and chemoattraction (CA) samples, use Assay Medium. • b. For chemorepulsion (CR) samples, use the appropriate dilution of ligand. • 8. 2 μl of cells (40,000 cells) were added to each bubble of liquid from step 7. • 9. A needle was used to pop all air bubbles. • 10. The plate was covered with the supplied lid and incubated for the desired time at 37° C. in 5% CO2. Unless otherwise indicated, the incubation time was 1 hour for neutrophils and 3 hours for T cells. For monocytes and B cells, the incubation time was 2 hours. • 11. After the desired assay time, the liquid was removed from the top of the plate using a Kimwipe. At this point, the plate was stored (with the membrane in place) for up to 2 hours at 4° C. • 12. The membrane was carefully removed from the top of the plate and discard. The plate was examined under a microscope to look for ligand crystallization, contamination and overall migration. • 13. White read plates were preloaded with 25 ul PBS. • 14. Using a multichannel pipettor, 5 ul of Cell Titer Glo (Promega # G7572) was added to each well. • 15. Using a multichannel pipettor set at 30 ul, lysed cell solution was transferred to white read plates pre-loaded with PBS. • 16. The plate was read using the BioTek Synergy4 plate reader in order to quantify the number of migrated cells.
The calcitriol analogs listed below were screened at concentrations of 3.7, 11.1, 33.3 and 100 uM as described above for chemorepulsive activity (FIGS. 11-13).

## CC(C(=O)[O-])c1ccc(CC2CCCC2=O)cc1.[Na+] (centres unmarked) [loxoprofen]
  chemorepulsion, fold over media: greater than 2 fold

## Nc1cc[n+]([C@@H]2CS[C@H](CO)O2)c(=O)[nH]1 [lamivudine, 4-amino-1-[(2R,5S)-2-(hydroxymethyl)-1,3-oxathiolan-5-yl]pyrimidin-2-one]
  chemorepulsion, fold over media: greater than 2 fold

## CNCC(O)c1ccc(O)cc1 (centres unmarked) [synephrine]
  chemorepulsion, fold over media: greater than 2 fold

## COc1nc(C)nc(Cl)c1NC1=NCCN1 [moxonidine]
  chemorepulsion, fold over media: greater than 2 fold

## CN(C/C=C/C#CC(C)(C)C)Cc1cccc2ccccc12 [terbinafine, N,6,6-trimethyl-N-(naphthalen-1-ylmethyl)hept-2-en-4-yn-1-amine]
  chemorepulsion, fold over media: greater than 2 fold

## COc1ccc(C2CNC(=O)C2)cc1OC1CCCC1 (centres unmarked) [rolipram, 4-(3-cyclopentyloxy-4-methoxy-phenyl)pyrrolidin-2-one]
  chemorepulsion, fold over media: greater than 2 fold

## CCOC(=O)[C@H](CCc1ccccc1)N[C@H]1CCc2ccccc2N(CC(=O)O)C1=O [benazepril]
  chemorepulsion, fold over media: greater than 2 fold

## Nc1ccc2c[nH]nc2c1 [6-aminoindazole]
  chemorepulsion, fold over media: greater than 2 fold
